These are yes or no findings as the source states them, for the method shown. Some results given as binding are weak or reduced against the parent protein; the word gives no strength.
Molecular target: T1, human ROR1 (human, UniProt Q01973 30-403, limits assumed)
T1 construct: The general ELISA protocol coats hROR1-Fc; also called hROR1; huROR1
Experiment: BLI against hROR1

Chains of the proteins cited; added tags and fusions are not shown. Residues count along the entry.
UniProt Q01973, residues 30-403: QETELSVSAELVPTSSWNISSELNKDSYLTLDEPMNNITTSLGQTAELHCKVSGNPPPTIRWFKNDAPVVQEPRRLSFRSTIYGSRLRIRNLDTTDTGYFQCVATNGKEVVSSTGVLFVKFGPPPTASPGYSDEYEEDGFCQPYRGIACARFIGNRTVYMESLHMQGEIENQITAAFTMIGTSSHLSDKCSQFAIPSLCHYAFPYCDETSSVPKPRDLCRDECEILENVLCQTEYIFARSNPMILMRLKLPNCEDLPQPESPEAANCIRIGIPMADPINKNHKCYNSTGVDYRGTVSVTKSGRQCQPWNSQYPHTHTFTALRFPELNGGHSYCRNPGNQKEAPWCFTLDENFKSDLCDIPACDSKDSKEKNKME

B1: D3 V2 (VNAR)
VNAR: ASVNQSPSSLSASVGDRVTITCVLTDTSYGLYSTSWFRKNPGTTDWERMSIGGRYVESVNKRAKSFTLTISSLQPEDFATYYCKAQSGMAISTGSGHGYNWYDGAGTKVEIK
notes: Humanised VNAR (soloMER)
For B1, the binding was “binds”.

From US20240376639A1 (ELASMOGEN, published 2024)
